Measurements reported in PubChem BioAssay AID504804 (Drosophila RNAi Screening Center, 2011)
Screen: 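dsRNAs that improve Kc cell survival under doxorubicin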 (primary screen). Cells: Drosophila Kc cells. Reagents: long dsRNA against Drosophila genes, 0.5 µg dsRNA per well. Time to read-out: 96 h (48 h knock-down, then 48 h drug). Conditions: doxorubicin 5 µg/ml for 48 h, added 48 h after dsRNA. Measurement: 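Viability measured as cellular ATP by luminescence after 48 h knock-down then 48 h doxorubicin at 5 µg/ml; unnormalised plate counts for each replicate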. Reading the numbers: raw ATP luminescence: higher = more viable cells, protection from doxorubicin. Call rule: 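z-score of 2 or more over plate mean in both duplicates, retained only when retests and separate dsRNAs confirm the protection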.
The deposit covers about 19,000 reagents; shown is a random part of those with a known target gene and a result. Over the whole deposit, 47 (0.25%) are marked active. 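Signals are raw, not normalised; exact z-scores behind calls not deposited; actives needed confirmation, so some wells reaching 2 SD are inactive.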 Entries without a mark were called inactive. Reagents against one gene are numbered here. A plus sign joins genes that one reagent is predicted to hit.

no.	gene	reagent	SD above plate mean	raw ATP luminescence, replicate 1	raw ATP luminescence, replicate 2
1	RyR	1		47037	79273
2	mrt	1		51350	44350
3	CG32645	1		3.67e5	3.72e5
4	CG32645	2		3.93e5	3.02e5
5	CG13995	1		3.35e5	3.09e5
6	CG13995	2		22027	29403
7	luna	1		67080	75417
8	luna	2		14057	17693
9	luna	3		46183	95730
10	CG10413	1		42770	53533
11	CG17778	1		51440	43430
12	amrt	1		2.67e5	2.99e5
13	Ltn1	1		23673	19987
14	Ltn1	2		70343	67197
15	inaF-B	1		1.98e5	2.07e5
16	CG15631	1		27637	37387
17	mRpL40	1		55297	50763
18	CG12395	1		3.79e5	3.09e5
19	mRpL13	1		44327	46857
20	CG5623	1		63160	67110
21	Mal-A7	1		29020	71910
22	SCAR	1		46340	89977
23	Cyp6a19	1		70920	66143
24	Mettl2	1		63550	69623
25	ND-PDSW	1		1.07e5	69587
26	CG11398	1		54340	43790
27	CG33514	1		63093	84573
28	CG33514	2		63150	85447
29	CG31337	1		2.05e5	2.19e5
30	Nelf-E	1		90620	73123
31	Srp14	1		58330	66890
32	CG13287	1		1.22e5	99280
33	CG7551	1		63990	59353
34	Hrb27C	1		1.19e5	53010
35	CG14795	1		35920	35330
36	Phb1	1		1.10e5	60810
37	Ref1	1		53097	20613
38	CG17217	1		81303	70280
39	ACXE	1		72123	78127
40	sturkopf	1		68400	64763
41	CG15864	1		57637	56897
42	CG10376	1		99493	65060
43	CG16825	1		42263	65427
44	CG2336	1		67637	67317
45	CG14684	1		63007	57463
46	rst	1		2.02e5	1.97e5
47	rst	2		54910	58780
48	CG14422	1		51260	24330
49	CG3376	1	at least 2 SD above plate mean	98503	88967
50	CG31008	1		1.30e5	1.61e5
51	Tom	1		15813	18430
52	Cyp6a15Psi	1		41680	73727
53	osa	1		42497	30217
54	CG7423	1		4.32e5	4.24e5
55	otu	1		35320	40410
56	Hug	1		48013	65197
57	CG31109	1		70630	58100

As entered above:
osa, raw ATP luminescence, replicate 2 = 30217
CG14795, raw ATP luminescence, replicate 1: 35920
Entry of CG32645 #2 in “raw ATP luminescence, replicate 1”: 3.93e5
CG12395, raw ATP luminescence, replicate 1 = 3.79e5
Entry for amrt in “raw ATP luminescence, replicate 2”: 2.99e5
Under “raw ATP luminescence, replicate 1”, inaF-B shows 1.98e5

Further results:
no.	gene	reagent	SD above plate mean	raw ATP luminescence, replicate 1	raw ATP luminescence, replicate 2
58	CG17493	1		48123	51560
59	yki	1		61277	56240
60	NtR	1		94073	56027
61	Rpp20 + CG33932	1		2.49e5	2.59e5
62	lmgA + lmgB	1		42737	81387
63	Muc96D	1		2.46e5	2.18e5
64	CG33235	1		3.38e5	3.29e5
65	Or85f	1		52977	47830
66	CG1317	1		61377	64313
67	CG13578	1		44680	71103
68	CG13856	1		61330	51140
69	CG16964	1		44263	76257
70	RpS30	1		36080	37090
71	CG5194	1		53147	36243
72	Remo	1		3.16e5	3.21e5
73	pinta	1		43403	39700
74	yellow-c + CIAPIN1	1		60820	65920
75	wwk	1		68017	69213
76	FucTA	1		76413	48793
77	Or59a	1		50333	57573
78	tapas	1		61367	69477
79	p38a	1		87350	1.09e5
80	CG5854	1		1.97e5	2.25e5
81	CG14535	1		47327	84917
82	CG14441	1		16320	20620
83	CG30349	1		36923	66040
84	CG30349	2		43190	81440
85	PH4alphaSG2	1		60890	48010
86	ACC	1		23057	46930
87	ACC	2		61510	58963
88	CG15366 (retired record)	1		47400	47850
89	Unc50	1		49423	56177
90	pelo	1		1.13e5	76923
91	Pal1 + Pdrg1	1		43403	94723
92	Sqor	1		43850	41170
93	mtt	1		43320	40873
94	mtt	2		76660	90603
95	mtt	3		37490	97230
96	mtt	4		41277	68437
97	djl	1		53573	51053
98	Pp4-19C	1		4.26e5	2.90e5
99	Pp4-19C	2		2.94e5	3.10e5
100	Mo25	1		29743	23460
101	Doc1	1		51943	60553
102	Surf6	1		38370	38443
103	Pldn	1		70273	68487
104	CG7653	1		62440	56563
105	cyst	1		86053	56677
106	Jhbp11	1		59340	37050
107	CG2604	1		57303	58623
